This passage reports binding results from article PMC10870779.

Amino acid sequences for entries named in this document (tags omitted).
UniProt P23258: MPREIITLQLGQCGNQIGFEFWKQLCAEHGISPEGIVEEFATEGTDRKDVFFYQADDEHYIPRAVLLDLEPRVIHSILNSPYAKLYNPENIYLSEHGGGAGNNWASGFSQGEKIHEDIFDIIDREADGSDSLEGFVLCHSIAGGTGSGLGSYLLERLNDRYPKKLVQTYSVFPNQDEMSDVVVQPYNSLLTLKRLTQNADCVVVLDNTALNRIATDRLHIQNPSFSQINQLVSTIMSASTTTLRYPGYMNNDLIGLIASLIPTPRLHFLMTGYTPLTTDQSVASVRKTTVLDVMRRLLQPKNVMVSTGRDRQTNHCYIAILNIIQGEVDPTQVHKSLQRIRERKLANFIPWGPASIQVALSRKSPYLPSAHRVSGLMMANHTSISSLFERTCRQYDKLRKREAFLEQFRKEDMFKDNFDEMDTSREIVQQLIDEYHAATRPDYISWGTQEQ

Results are given in words; binding and its absence hold for the method and conditions named. In cells and extracts the contact can be indirect. Some results given as binding are weak or reduced against the parent protein; the word gives no strength.

The experiment has as its target N-terminally GST-tagged human γ-tubulin (human) (UniProt P23258). The experiment in a line: pull-down; GST-tagged human γ-tubulin or GST alone with whole-cell extracts; immunoblot; only the target purified. A general note: A western blot detects proteins with antibodies after separation by electrophoresis.

B1: β-PIX (p21-activated kinase interacting exchange factor), endogenous (protein, UniProt Q9ES28 1-862)
chain: MNSAEQTVTWLITLGVLESPKKTISDPEVFLQASLKDGVVLCRLLERLLPGTIEKVYPEPRNESECLSNIREFLRACGASLRLETFDANDLYQGQNFNKVLSSLVTLNKVTADIGLGSDSVCARPSSHRIKSFDSLGSQSSHSRTSKLLQSQYRSLDMTDNTNSQLVVRAKFNFQQTNEDELSFSKGDVIHVTRVEEGGWWEGTHNGRTGWFPSNYVREIKPSEKPVSPKSGTLKSPPKGFDTTAINKSYYNVVLQNILETEHEYSKELQSVLSTYLRPLQTSDKLSSANTSYLMGNLEEISSFQQVLVQSLEECTKSPEAQQRVGGCFLSLMPQMRTLYLAYCANHPSAVSVLTEHSEDLGEFMETKGASSPGILVLTTGLSKPFMRLDKYPTLLKELERHMEDYHPDRQDIQKSMTAFKNLSAQCQEVRKRKELELQILTEPIRSWEGDDIKTLGSVTYMSQVTIQCAGSEEKNERYLLLFPNLLLMLSASPRMSGFIYQGKLPTTGMTITKLEDSENHRNAFEISGSMIERILVSCTSQQDLHEWVEHLQKQTKVTSVSNPTIKPHSVPSHTLPSHPLTPSSKHADSKPVALTPAYHTLPHPSHHGTPHTTISWGPLEPPKTPKPWSLSCLRPAPPLRPSAALCYKEDLSKSPKTMKKLLPKRKPERKPSDEEFAVRKSTAALEEDAQILKVIEAYCTSAKTRQTLNSTWQGTDLMHNHVLADDDQSSLDSLGRRSSLSRLEPSDLSEDSEYDSIWTAHSYRMGSASRSRKESAPQVLLPEEEKIIVEETKSNGQTVIEEKSLVDTVYALKDEVQELRQDNKKMKKSLEEEQRARKDLEKLVRKVLKNMNDPAWDETNL
For the molecule B1, the binding entry is given as “binds”.

B2: G protein-coupled receptor kinase-interacting protein 2 (GIT2), GIT2-long, endogenous (protein, UniProt Q9JLQ2 1-708)
chain: MSKRLRSSDVCADCNGPDPSWASVNRGTFICDECCSVHRSLGRHISQVRHLKHTAWPPTLLQMVETLYNNGANSIWEHSLLDPASIMSGRRKANPQDKVHPNKAEFIRAKYQMLAFVHRLPCREDDSVTAKDLSKQLHSSVRTGNLETCLRLLSLGAQANFFHPEKGSTPLHVASKAGQILQAELLAVYGADPGTQDSSGKTPVDYARQGGHHELAERLIEIQYELTDRLAFYLCGRKPDHKSGQHFLIPQRADSLDLSELAKAAKKKLQSLSNHLFEELAMDVYDEVDRRETDAVWLATQNHSTLVTETTVVPFLPVNPEYSSTRNQGRQKLARFNAHEFATLVIDILSDAKRRQQGSPLSRSKDNVELILRTVSTQHSTESQDNDQPDYDSVASDEDTDVETRASKANRQKLQTLQSENSSLRRQATASACQVQTGSDHKDTASHSSLKRRPSARGSRPMSMYETGSGQKPYLPMGEASHPEESRTRLQPFPTHIGRSALVTSSSSLPSFPSTLSWSRDESARRASRLEKQNSTPESDYDNTACDPEPDDTGSTRKGRQRSMLWQGDGLLPDTAEPHSVPSPTLPSTEDVIRKTEQITKNIQELLRAAQENKHDSYIPCSERIHVAVTEMAALFPKKPKSDTVRTSLRLLTSSAYRLQSECRKALPGDSSLPTDVQLVTQQVIQCAYDIAKAAKQLVTITTKENSS
Take B2: the binding entry is “binds”.
